Drawing on US12325747, this text covers binding for 2 molecules.

Protein sequences, listed by entry. Tags and fused reporters are not part of them. Lines headed by an entry give the natural chain unless they say otherwise; changes in a name come on top.
UniProt Q9NZQ7: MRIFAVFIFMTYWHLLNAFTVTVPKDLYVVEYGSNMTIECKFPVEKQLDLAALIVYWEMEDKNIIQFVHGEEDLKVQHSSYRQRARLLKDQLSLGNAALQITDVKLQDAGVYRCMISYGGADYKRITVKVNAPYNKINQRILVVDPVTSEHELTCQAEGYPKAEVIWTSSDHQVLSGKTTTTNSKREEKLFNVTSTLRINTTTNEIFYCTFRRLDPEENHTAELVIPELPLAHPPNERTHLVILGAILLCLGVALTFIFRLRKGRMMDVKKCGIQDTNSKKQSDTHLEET

These are yes or no findings as the source states them, for the method shown. Some entries that bind do so weakly or less than the wild type.

The test concerns the target PD-L1 on CHO-PD-L1 cells (human) (UniProt Q9NZQ7). Nature of the test: flow cytometry blocking assay 'CHO-PDL1 : PD-1 Alexa 532'; blocked ligand Alexa 532 labelled PD-1; one antibody concentration; both panels. (In general: In flow cytometry, cells or beads pass a laser one at a time.)

B1: ADI-16403 (antibody, human IgG1, V domains shown)
VH: EVQLVESGGGLVQPGGSLRLSCAASGFTFSSYWMSWVRQAPGKGLEWVANIKSDGSEKYYVDSVKGRFTISRDNAKNSLYLQMNSLRAEDTAVYYCARVTYWADYMDVWGKGTTVTVSS
VL: DIQMTQSPSTLSASVGDRVTITCRASQSISSWLAWYQQKPGKAPKLLIYKASSLESGVPSRFSGSGSGTEFTLTISSLQPDDFATYYCQQSGSLPPTFGGGTKVEIK
With B1, the binding entry is “binds”.

B2: ADI-16377 (antibody, human IgG1, V domains shown)
VH: QVQLVQSGAEVKKPGASVKVSCKASGYTFTSYYMHWVRQAPGQGLEWMGIINPSGGSTSYAQKFQGRVTMTRDTSTSTVYMELSSLRSEDTAVYYCARDPLMSGTRWLFDIWGQGTMVTVSS
VL: DIQMTQSPSSVSASVGDRVTITCRASQGISSWLAWYQQKPGKAPKLLIYAASSLQSGVPSRFSGSGSGTDFTLTISSLQPEDFATYYCQQVHHFPPTFGGGTKVEIK
B2: the binding result is on record as “binds”.
